Measurements as given in article PMC5646206.
The exact form of at least one protein or probe is not confirmed. At least one result comes from cells or an extract, where the contact may be indirect.

Protein sequences, listed by entry. Tags and fused reporters are not part of them. Lines headed by an entry give the natural chain unless they say otherwise; changes in a name come on top.
UniProt Q04609: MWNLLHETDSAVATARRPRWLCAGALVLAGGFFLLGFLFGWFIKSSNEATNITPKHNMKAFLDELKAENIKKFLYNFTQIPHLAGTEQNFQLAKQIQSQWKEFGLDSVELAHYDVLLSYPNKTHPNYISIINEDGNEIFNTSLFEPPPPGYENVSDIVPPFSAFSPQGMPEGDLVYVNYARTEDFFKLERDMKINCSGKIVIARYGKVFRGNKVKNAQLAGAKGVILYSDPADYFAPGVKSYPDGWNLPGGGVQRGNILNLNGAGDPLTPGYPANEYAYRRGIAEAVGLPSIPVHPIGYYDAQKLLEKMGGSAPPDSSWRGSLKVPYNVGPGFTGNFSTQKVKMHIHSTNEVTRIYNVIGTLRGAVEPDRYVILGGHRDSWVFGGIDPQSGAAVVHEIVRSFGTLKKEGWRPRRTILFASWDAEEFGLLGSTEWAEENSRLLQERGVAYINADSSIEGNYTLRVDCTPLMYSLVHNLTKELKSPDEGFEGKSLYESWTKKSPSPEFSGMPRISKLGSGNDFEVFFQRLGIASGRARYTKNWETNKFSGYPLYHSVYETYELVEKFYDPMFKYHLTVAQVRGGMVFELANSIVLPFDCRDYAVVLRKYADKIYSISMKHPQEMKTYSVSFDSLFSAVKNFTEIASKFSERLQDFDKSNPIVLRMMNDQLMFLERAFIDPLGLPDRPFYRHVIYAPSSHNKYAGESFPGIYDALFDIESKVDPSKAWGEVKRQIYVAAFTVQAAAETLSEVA

Molecular target: PSMA (prostate-specific membrane antigen) on LNCaP cells (UniProt Q04609)
Assay: two-photon scattering ruler on whole cells (nanoparticle dimer dissociation) and TEM
Settings: TPS falls about 9% at 5 cells per mL, no change with PSMA(-) HaCaT cells, 3'-(CH2)6-SH, 2'-modifications not stated, ruler hybridized in 10 mM PBS with 0.3 M NaCl, pH and temperature of cell binding not given, protein on the cell surface, label: gold nanoparticle via 3' thiol

Sequence: GGGAGGACGAUGCGGACCGAAAAAGACCUGACUUCUAUACUAAGUCUACGUUCCCAGACGACUCGCCCG [A9 aptamer (anti-PSMA) TPS ruler strand]
- binding result: binds
